Primary screen of a compound library

Protein sequences, listed by entry. Tags and fused reporters are not part of them.
UniProt E9BF75, entry or part of it: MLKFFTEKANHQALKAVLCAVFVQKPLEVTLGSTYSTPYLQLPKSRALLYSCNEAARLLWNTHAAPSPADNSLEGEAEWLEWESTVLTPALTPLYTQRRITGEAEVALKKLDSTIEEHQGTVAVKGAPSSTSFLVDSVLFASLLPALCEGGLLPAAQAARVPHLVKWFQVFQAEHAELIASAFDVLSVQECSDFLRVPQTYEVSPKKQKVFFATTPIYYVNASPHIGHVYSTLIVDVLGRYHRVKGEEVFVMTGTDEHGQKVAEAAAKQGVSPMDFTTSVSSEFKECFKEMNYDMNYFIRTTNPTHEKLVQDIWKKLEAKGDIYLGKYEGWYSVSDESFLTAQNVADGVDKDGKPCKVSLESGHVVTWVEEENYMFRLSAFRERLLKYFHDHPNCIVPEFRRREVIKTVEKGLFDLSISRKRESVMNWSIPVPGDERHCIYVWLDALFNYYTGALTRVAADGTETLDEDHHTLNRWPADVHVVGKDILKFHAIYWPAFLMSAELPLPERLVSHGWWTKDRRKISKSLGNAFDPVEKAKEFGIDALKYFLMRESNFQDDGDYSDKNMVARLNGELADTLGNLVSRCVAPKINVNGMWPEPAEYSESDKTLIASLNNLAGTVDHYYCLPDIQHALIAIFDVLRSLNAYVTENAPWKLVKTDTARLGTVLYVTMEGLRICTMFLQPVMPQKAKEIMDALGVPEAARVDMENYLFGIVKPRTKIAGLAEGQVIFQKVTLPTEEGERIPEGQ

The values are deposited in ChEMBL (CHEMBL3988442, “University of Dundee, Small-Polar-MMV Screening Library” (2021)).

Mtb heat-shock: 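Assay on Mycobacterium tuberculosis, filed only as a heat shock assay from Cornell; the read-out is not stated. The concentration is filed as 10 mM, unlikely as a test dose, so the dose is not known. Higher reads as stronger inhibition (inferred: compounds with an IC50 in retests scored well above the rest). Size under these conditions: about 69,000 compounds, about 930 of them at 50% or above in at least one test.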
Mtb growth Cornell: 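Whole-cell assay for inhibitors of Mycobacterium tuberculosis growth, labelled Cornell in the record; the read-out is not stated. The concentration is filed as 10 mM, unlikely as a test dose, so the dose is not known. Higher means stronger inhibition (inferred from two other growth screens of the library). About 53,000 compounds were tested under these conditions; 1.7% (about 900) showed 50% or more at least once.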
LdMetRS: 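Primary screen of methionyl-tRNA synthetase; the read-out is not stated. Target: Methionyl-tRNA synthetase (putative), Leishmania donovani (UniProt E9BF75). The test concentration is not given. Values are per cent inhibition. Of about 68,000 compounds tested this way, about 24 (0.035%) reached 50% or more in at least one test.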

All values are in %. The record does not define 0% and 100%; most values in the screen are far below 50% and negative numbers occur (in some assays of this library far below -100). The compounds are a random part of those screened.

For CN(C)c1ccccc1CN1CCC(N2CCCC2=O)CC1 the result was Mtb heat-shock: -7.548%; LdMetRS: 6.72%.
For [H][C@@]12CS(=O)(=O)C[C@]1([H])N(C(=O)c1csc(C)n1)CCN2C(=O)C1CCC1 the result was Mtb heat-shock: 0.4853%; Mtb growth Cornell: -2.238%.
For Cc1nn(C)c(C)c1-c1ccnc(N2CCCN(CC(C)C)CC2)n1 the result was Mtb heat-shock: 2.656%; Mtb growth Cornell: 13.11%; LdMetRS: 19.2%.
For CC(=O)c1cc(CN2CCCC23CCN(c2ccccn2)CC3)cs1 the result was Mtb heat-shock: 8.38%; Mtb growth Cornell: -2.901%; LdMetRS: 16.21%.
For CC(C)n1nc2c(cc1=O)CN(Cc1ccc(-n3cccn3)cc1)CC2 the result was Mtb heat-shock: 0.3035%; Mtb growth Cornell: 21.68%; LdMetRS: 15.73%.
For COc1cccc2c1N(CC(=O)Nc1ccc(Br)cn1)CCC2 the result was Mtb heat-shock: 6.469%; Mtb growth Cornell: 17.87%; LdMetRS: 7.801%.
For CCOCc1ncn2c1CN(C(=O)Nc1ccccc1)CC2 the result was Mtb heat-shock: -25.19%; LdMetRS: -8.609%.
For CCC(C(=O)NC)N(c1cccc(C)c1)S(C)(=O)=O (centres undefined) the result was Mtb heat-shock: -13.46%; Mtb growth Cornell: 0.04978%; LdMetRS: 8.78%.
For COCCNC(=O)Cn1cc2c(n1)c(C)nn2C(C)C the result was Mtb heat-shock: 0.03029%; Mtb growth Cornell: -12.56%; LdMetRS: 22.04%.
For CN(C)C(=O)CN1CCC2(COCc3cnc(-c4cccnc4)nc32)C1.O=C(O)C(F)(F)F.O=C(O)C(F)(F)F (centres undefined) the result was Mtb heat-shock: 36.72%; Mtb growth Cornell: 12.4%.
For Cc1noc(-c2ccc(N3CCC[C@H]3CO)nc2)n1 the result was Mtb heat-shock: 9.225%; LdMetRS: 10.44%.
For O=C(Cc1cccs1)N1CCOCC1CO (centres undefined) the result was Mtb heat-shock: 4.621%; Mtb growth Cornell: 21.55%; LdMetRS: 6.475%.
For O=C(O)C(F)(F)F.[H][C@@]12C[C@H](C(=O)NC3CC3)CN(CC3CC3)[C@]1([H])CCO2 the result was Mtb heat-shock: -6.68%; Mtb growth Cornell: -0.8674%.
For O=C(C1CCC1)N1CC[C@H](O)[C@@H]1Cc1cccnc1 the result was LdMetRS: 15.5%.
For CCNC(=O)CCC(=O)NC(C)Cc1ccccc1Br (centres undefined) the result was Mtb heat-shock: 17.91%; Mtb growth Cornell: 9.623%; LdMetRS: 13.87%.
For [H][C@@]12CN(C(=O)c3cnn(C)c3)CCO[C@]1([H])CN(C1CCC1)C2 the result was Mtb heat-shock: 19.88%; Mtb growth Cornell: 3.925%.
For Cn1c2c(c(=O)n1C)CN(C(=O)c1ccco1)CCC2 the result was Mtb heat-shock: -10.22%; Mtb growth Cornell: -5.942%; LdMetRS: -2.837%.
For CC1(C(N)=O)CN(CC2CCC2)CCO1 (centres undefined) the result was Mtb heat-shock: 5.054%; Mtb growth Cornell: 4.758%; LdMetRS: 6.562%.
For Cn1cnc2c1CCN(Cc1csc(-c3ccsc3)n1)C2 the result was Mtb heat-shock: 121.8%; Mtb growth Cornell: 7.174%; LdMetRS: 13.5%.
For Cn1nnc2cc(C(=O)NS(=O)(=O)c3ccc(F)cc3)ccc21 the result was Mtb heat-shock: -14.37%; LdMetRS: 14.09%.
For CN(C)CCCNC(=O)C(c1cccc(F)c1)N(C)C (centres undefined) the result was Mtb heat-shock: -12.41%; Mtb growth Cornell: -4.162%; LdMetRS: 16.05%.
For CCS(=O)(=O)CCN(C)C(=O)NC(C)c1ccc(C)s1 (centres undefined) the result was Mtb heat-shock: 19.4%; Mtb growth Cornell: -8.124%; LdMetRS: 10.99%.
For COCCO[C@@H]1CCN(C(=O)c2ccc(C)o2)[C@@H]1Cc1cccnc1 the result was LdMetRS: 7.619%.
For CCOc1nnc(CN(C)CC2CCCN2c2cccnn2)s1 (centres undefined) the result was Mtb heat-shock: 6.32%; Mtb growth Cornell: 11.22%; LdMetRS: 6.338%.
For O=C(O)C(F)(F)F.[H][C@@]12CO[C@H](CNS(C)(=O)=O)[C@]1([H])CCN(Cc1ccsc1)C2 the result was Mtb heat-shock: -31.27%.
For CCOCC(=O)NS(=O)(=O)c1ccc(F)cc1C(F)(F)F the result was Mtb heat-shock: 2.067%; Mtb growth Cornell: 17.17%; LdMetRS: 14.62%.
For CN1C(=O)CCC12CCN(Cc1ccco1)CC2 the result was Mtb heat-shock: -12.18%; Mtb growth Cornell: -7.712%; LdMetRS: 14.01%.